Consider two compounds from PMC6142817, “New Urea Derivatives Are Effective Anti-senescence Compounds Acting Most Likely via a Cytokinin-Independent Mechanism” (Frontiers in Plant Science, 2018).

In the data set the test system is endogenous cytokinins in detached wheat leaves. In words: Cytokinin analysis of leaves from the WLSA (UHPLC-MS/MS). On the set-up: species or system Triticum aestivum. As to conditions: 10 μM compound; for Cytokinin level: Total / Cytokinin level: Total bases / Cytokinin level: Total cZ-types / Cytokinin level: Total tZ-types / Cytokinin level: cZ / Cytokinin level: cZOG / Cytokinin level: tZ / Cytokinin level: tZR: detached wheat leaves, 5 days in the dark, S.D. in brackets.

In the case of `COCCNC(=O)Nc1cnns1` [ASES, 1-(2-methoxy-ethyl)-3-1,2,3-thiadiazol-5-yl-urea], the “Cytokinin level: Total” value is 521.9 (132.6) pmol/g FW, the “Cytokinin level: Total bases” value is recorded as 11.4 (0.3) pmol/g FW, the “Cytokinin level: Total cZ-types” value is reported as 499.1 (133) pmol/g FW and the “Cytokinin level: Total tZ-types” value is 13.8 (0.8) pmol/g FW. The “Cytokinin level: cZ” value was 3.0 (0.6) pmol/g FW, the “Cytokinin level: cZOG” value was 474.7 (133.8) pmol/g FW, the “Cytokinin level: tZ” value was 1.3 (0.1) pmol/g FW and the “Cytokinin level: tZR” value is given as 7.0 (0.4) pmol/g FW. In addition, under “WLSA leaves”, the “cZOG content, fold increase compared to TDZ-treated leaves” value is listed as “approximately 2.2 fold”; the “tZ content, fold higher than in fresh control leaves” value worked out at 6.0 fold; the “tZ-riboside content, fold higher than in fresh control leaves” value was 25 fold; the “total cytokinin content, fold increase compared to DMSO-treated leaves” value was 1.5 fold. The “total cytokinin content, fold increase compared to TDZ-treated leaves” value (WLSA leaves) is on record as 1.7 fold.
With `O=C(Nc1ccccc1)Nc1cnns1` [TDZ, 1-phenyl-3-(1,2,3-thiadiazol-5-yl)urea, reference compound], the “Cytokinin level: Total” value is 305.3 (16.2) pmol/g FW, the “Cytokinin level: Total bases” value is 12.0 (0.5) pmol/g FW, the “Cytokinin level: Total cZ-types” value was 272.3 (16) pmol/g FW and the “Cytokinin level: Total tZ-types” value was 17.6 (1.5) pmol/g FW. In addition, the “Cytokinin level: cZ” value is given as 4.3 (0.7) pmol/g FW, the “Cytokinin level: cZOG” value was 207.1 (3.3) pmol/g FW, the “Cytokinin level: tZ” value is recorded as 1.8 (0.3) pmol/g FW and the “Cytokinin level: tZR” value is given as 7.1 (1.8) pmol/g FW. Further, for the setting “WLSA leaves”, the “tZ content, fold higher than in fresh control leaves” value came to 8.8 fold and the “tZ-riboside content, fold higher than in fresh control leaves” value turned out to be 25 fold.
